# Results as given in article PMC7360120.
# No constants are given. Whether binding was seen depends on the method and setting. Binding seen in cells or lysates may run through a third protein. Some entries that bind do so weakly or less than the wild type. For some of these results: Tags and fused reporters may be left off the sequences shown.
# T1: GST-Rab6A Q72L (UniProt P35279)
# T1 sequence: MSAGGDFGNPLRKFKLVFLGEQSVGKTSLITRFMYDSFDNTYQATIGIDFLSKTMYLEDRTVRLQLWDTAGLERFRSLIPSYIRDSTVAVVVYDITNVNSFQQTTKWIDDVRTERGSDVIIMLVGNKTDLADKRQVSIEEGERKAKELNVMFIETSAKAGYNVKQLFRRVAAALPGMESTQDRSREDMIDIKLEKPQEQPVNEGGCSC
# Assays:
# GST-Rab6A Q72L = target: T1, GST-Rab6A Q72L; test: pull-down; GST-Rab proteins (10 μg, active and inactive mutants) on glutathione-Sepharose with 0.5 mL mouse brain lysate (wild type; RIM1 knockout in Figure S3C); 100 mM NaCl, 4 mM EGTA, 25 mM HEPES pH 7.4, 1 mM DTT, 1% Triton X-100, 6 mM Mg2+, 1.5 h at 4°C; western blot; only the target purified
# GST-Rab6B Q72L = GST-Rab6B Q72L (UniProt P61294); test: as above
Binder,binding (GST-Rab6A Q72L),binding (GST-Rab6B Q72L)
"endogenous ELKS1 (protein, UniProt Q99MI1 1-1120) MYGSARSVGKVEPSSQSPGRSPRLPRSPRLGHRRTNSTGGSSGNSVGGGSGKTLSMENIQSLNAAYATSGPMYLSDHENVGAETPKSTMTLGRSGGRLPYGVRMTAMGSSPNIASSGVASDTIAFGEHHLPPVSMASTVPHSLRQARDNTIMDLQTQLKEVLRENDLLRKDVEVKESKLSSSMNSIKTFWSPELKKERALRKDEASKITIWKEQYRVVQEENQHMQMTIQALQDELRIQRDLNQLFQQDSSSRTGEPCVAELTEENFQRLHAEHERQAKELFLLRKTLEEMELRIETQKQTLNARDESIKKLLEMLQSKGLSAKATEEDHERTRRLAEAEMHVHHLESLLEQKEKENNMLREEMHRRFENAPDSAKTKALQTVIEMKDSKISSMERGLRDLEEEIQMLKSNGALSSEEREEEMKQMEVYRSHSKFMKNKVEQLKEELSSKDAQGEELKKRAAGLQSEIGQVKQELSRKDTELLALQTKLETLTNQFSDSKQHIEVLKESLTAKEQRAAILQTEVDALRLRLEEKETMLNKKTKQIQDMAEEKGTQAGEIHDLKDMLDVKERKVNVLQKKIENLQEQLRDKEKQMSSLKERVKSLQADTTNTDTALTTLEEALADKERTIERLKEQRDRDEREKQEEIDTYKKDLKDLREKVSLLQGDLSEKEASLLDIKEHASSLASSGLKKDSRLKTLEIALEQKKEECLKMESQLKKAHEATLEARASPEMSDRIQQLEREISRYKDESSKAQTEVDRLLEILKEVENEKNDKDKKIAELESLTSRQVKDQNKKVANLKHKEQVEKKKSAQMLEEARRREDSLSDSSQQLQDSLRKKDDRIEELEEALRESVQITAEREMVLAQEESARTNAEKQVEELLMAMEKVKQELESMKAKLSSTQQSLAEKETHLTNLRAERRKHLEEVLEMKQEALLAAISEKDANIALLELSSSKKKTQEEVAALKREKDRLVQQLKQQTQNRMKLMADNYEDDHFRSSRSNQTNHKPSPDQIIQPLLELDQNRSKLKLYIGHLTALCHDRDPLILRGLTPPASYNADGEQAAWENELQQMTQEQLQNELEKVEGDNAELQEFANTILQQIADHCPDILEQVVNALEESS",binds,binds
"endogenous ELKS2 (protein, UniProt Q6PH08 1-957) MYGSARTISNLEGSPSRSPRLPRSPRLGHRRTSSGGGGGTGKTLSMENIQSLNAAYATSGPMYLSDHEGVASTTYPKGTMTLGRATNRAVYGGRVTAMGSSPNIASAGLSHTDVLSYTDQHGGLSGSSHHHHHQVPSMLRQVRDSTMLDLQAQLKELQRENDLLRKELDIKDSKLGSSMNSIKTFWSPELKKERVLRKEEAARMSVLKEQMRVSHEENQHLQLTIQALQDELRTQRDLNHLLQQESGNRGAEHFTIELTEENFRRLQAEHDRQAKELFLLRKTLEEMELRIETQKQTLNARDESIKKLLEMLQSKGLPSKSLEDDNERTRRMAEAESQVSHLEVILDQKEKENIHLREELHRRSQLQPEPAKTKALQTVIEMKDTKIASLERNIRDLEDEVQMLKANGVLNTEDREEEIKQIEVYKSHSKFMKTKIDQLKQELSKKESELLALQTKLETLSNQNSDCKQHIEVLKESLTAKEQRAAILQTEVDALRLRLEEKESFLNKKTKQLQDLTEEKGTLAGEIRDMKDMLEVKERKINVLQKKIENLQEQLRDKDKQLTNLKDRVKSLQTDSSNTDTALATLEEALSEKERIIERLKEQRERDDRERLEEIESFRKENKDLKEKVNALQAELTEKESSLIDLKEHASSLASAGLKRDSKLKSLEIAIEQKKEECNKLEAQLKKAHNIEDDSRMNPEFADRLKQLDKEASYYRDECGKAQAEVDRLLEILKEVENEKNDKDKKIAELESLTLRHMKDQNKKVANLKYNQQLEKKKNAQLLEEVRRREDSMVDNSQHLQIEELMNALEKTRQELDATKARLASTQQSLAEKEAHLANLRIERRKQLEEILEMKQEALLAAISEKDANIALLELSASKKKKTQEEVMALKREKDRLVHQLKQQTQNRMKLMADNYDEDHHHYHHHHHHHHHRSPGRSQHSNHRPSPDQDDEEGIWA",binds,binds
